In the supplement of paper PMC10849652:
Some of the results follow.

The chains behind the UniProt entries cited, without tags or fusion partners. Where a name states a change or a piece, a line headed by the entry shows the natural chain unless it says otherwise.
UniProt Q9NXU5: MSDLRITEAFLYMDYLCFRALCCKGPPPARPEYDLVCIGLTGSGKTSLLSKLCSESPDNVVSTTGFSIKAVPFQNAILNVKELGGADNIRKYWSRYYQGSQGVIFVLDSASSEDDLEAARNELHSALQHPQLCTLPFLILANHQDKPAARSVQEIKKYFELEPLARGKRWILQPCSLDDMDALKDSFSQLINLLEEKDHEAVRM
UniProt Q99856: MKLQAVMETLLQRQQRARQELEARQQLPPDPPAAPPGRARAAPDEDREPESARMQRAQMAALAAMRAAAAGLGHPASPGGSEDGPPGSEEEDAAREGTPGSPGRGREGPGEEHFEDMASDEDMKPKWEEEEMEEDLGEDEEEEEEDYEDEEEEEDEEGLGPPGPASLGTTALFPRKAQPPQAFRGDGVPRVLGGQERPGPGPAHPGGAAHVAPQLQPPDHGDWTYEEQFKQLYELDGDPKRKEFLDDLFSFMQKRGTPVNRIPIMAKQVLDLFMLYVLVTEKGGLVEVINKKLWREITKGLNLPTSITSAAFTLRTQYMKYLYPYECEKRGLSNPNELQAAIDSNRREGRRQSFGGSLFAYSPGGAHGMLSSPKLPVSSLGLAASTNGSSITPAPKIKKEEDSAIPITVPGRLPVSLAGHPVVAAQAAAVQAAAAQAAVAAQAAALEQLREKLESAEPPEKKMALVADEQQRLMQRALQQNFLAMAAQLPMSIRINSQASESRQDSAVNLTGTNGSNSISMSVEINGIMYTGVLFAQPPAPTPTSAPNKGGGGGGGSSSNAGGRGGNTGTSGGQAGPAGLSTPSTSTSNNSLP
UniProt P36405: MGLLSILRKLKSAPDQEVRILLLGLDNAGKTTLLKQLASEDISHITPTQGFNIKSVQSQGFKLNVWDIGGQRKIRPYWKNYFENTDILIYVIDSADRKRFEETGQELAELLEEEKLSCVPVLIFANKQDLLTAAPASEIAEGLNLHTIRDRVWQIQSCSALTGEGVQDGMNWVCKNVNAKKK
UniProt Q9BPX5, whole entry, looked up: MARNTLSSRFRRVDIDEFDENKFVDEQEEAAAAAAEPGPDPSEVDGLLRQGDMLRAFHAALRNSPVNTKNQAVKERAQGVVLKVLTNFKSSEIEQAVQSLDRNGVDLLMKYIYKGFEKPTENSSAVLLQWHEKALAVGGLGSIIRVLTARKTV
UniProt Q9BZZ5: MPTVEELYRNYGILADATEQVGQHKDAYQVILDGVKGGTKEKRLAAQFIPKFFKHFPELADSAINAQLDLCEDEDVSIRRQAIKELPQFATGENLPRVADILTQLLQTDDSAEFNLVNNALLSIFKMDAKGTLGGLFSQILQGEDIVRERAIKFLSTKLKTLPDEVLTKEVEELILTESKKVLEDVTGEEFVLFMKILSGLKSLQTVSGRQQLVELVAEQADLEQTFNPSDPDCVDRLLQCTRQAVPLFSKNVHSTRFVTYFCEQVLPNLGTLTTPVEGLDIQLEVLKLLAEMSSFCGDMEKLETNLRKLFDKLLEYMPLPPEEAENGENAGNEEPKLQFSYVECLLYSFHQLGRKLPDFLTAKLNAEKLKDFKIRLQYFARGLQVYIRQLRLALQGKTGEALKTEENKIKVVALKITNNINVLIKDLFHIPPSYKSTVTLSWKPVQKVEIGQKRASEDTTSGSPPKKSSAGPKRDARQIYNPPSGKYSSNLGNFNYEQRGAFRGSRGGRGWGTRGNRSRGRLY
UniProt P10398: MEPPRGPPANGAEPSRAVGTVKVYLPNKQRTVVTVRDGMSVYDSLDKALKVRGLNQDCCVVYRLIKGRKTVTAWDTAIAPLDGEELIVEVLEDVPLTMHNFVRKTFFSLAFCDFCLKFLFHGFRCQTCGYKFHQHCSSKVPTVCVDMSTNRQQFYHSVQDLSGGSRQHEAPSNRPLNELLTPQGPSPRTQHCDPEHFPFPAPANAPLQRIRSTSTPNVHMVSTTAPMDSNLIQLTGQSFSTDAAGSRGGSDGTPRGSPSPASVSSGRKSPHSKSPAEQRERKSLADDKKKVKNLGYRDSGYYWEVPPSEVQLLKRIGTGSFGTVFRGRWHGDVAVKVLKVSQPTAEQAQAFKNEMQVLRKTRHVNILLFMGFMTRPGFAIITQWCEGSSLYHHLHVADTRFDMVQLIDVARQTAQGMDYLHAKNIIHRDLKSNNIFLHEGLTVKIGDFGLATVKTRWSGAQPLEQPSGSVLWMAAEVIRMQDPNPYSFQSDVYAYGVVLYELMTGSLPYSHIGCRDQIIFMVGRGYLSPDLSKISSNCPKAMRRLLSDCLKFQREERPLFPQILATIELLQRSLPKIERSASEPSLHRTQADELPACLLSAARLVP
UniProt Q9NRY4: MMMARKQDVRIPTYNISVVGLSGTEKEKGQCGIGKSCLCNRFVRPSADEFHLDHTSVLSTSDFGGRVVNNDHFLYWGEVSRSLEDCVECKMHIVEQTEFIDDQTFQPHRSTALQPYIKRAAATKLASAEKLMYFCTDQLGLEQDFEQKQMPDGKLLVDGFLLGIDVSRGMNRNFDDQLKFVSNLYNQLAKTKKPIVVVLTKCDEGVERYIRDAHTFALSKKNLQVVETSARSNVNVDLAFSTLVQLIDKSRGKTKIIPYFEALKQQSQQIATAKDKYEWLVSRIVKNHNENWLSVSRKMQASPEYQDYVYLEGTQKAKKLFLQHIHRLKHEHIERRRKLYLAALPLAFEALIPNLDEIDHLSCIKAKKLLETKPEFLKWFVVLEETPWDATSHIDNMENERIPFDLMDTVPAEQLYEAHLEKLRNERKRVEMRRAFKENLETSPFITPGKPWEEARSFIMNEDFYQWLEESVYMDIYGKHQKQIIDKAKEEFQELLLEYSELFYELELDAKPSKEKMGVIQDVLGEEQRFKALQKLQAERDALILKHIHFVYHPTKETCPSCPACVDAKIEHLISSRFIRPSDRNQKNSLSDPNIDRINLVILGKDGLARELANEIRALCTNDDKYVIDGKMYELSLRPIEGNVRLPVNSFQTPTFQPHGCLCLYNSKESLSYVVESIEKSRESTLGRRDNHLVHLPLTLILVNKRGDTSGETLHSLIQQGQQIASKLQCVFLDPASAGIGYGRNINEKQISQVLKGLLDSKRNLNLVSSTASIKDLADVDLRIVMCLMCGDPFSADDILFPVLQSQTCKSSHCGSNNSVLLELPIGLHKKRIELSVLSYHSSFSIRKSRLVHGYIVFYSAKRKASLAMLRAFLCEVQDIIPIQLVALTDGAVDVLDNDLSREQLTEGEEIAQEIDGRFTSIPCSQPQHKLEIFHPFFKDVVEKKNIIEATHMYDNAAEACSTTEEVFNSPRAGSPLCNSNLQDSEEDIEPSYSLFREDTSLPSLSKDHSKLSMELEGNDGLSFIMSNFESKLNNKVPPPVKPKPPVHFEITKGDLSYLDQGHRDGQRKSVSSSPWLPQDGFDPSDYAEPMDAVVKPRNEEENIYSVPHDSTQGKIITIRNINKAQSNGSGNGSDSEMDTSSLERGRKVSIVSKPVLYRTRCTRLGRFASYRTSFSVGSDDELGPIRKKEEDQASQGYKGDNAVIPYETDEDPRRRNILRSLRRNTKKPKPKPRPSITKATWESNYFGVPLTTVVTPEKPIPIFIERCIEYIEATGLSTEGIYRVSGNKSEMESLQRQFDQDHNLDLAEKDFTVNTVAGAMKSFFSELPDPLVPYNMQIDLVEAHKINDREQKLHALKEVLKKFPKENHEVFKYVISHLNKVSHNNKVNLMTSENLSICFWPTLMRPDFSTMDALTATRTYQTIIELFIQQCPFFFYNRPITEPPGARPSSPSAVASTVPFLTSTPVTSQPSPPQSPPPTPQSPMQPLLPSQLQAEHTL
UniProt Q07960: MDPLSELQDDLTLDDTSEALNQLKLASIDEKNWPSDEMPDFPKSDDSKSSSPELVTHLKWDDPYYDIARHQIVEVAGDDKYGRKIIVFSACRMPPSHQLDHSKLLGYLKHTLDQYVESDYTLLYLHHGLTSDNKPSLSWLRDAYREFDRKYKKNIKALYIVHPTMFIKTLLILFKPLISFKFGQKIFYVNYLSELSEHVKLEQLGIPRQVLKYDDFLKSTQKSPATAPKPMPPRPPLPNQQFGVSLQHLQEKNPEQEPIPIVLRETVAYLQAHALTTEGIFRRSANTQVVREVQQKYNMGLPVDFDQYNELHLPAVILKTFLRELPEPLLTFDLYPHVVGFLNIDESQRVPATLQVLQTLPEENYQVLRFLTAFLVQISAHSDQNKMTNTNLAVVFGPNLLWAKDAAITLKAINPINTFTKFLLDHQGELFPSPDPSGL
UniProt Q96P48: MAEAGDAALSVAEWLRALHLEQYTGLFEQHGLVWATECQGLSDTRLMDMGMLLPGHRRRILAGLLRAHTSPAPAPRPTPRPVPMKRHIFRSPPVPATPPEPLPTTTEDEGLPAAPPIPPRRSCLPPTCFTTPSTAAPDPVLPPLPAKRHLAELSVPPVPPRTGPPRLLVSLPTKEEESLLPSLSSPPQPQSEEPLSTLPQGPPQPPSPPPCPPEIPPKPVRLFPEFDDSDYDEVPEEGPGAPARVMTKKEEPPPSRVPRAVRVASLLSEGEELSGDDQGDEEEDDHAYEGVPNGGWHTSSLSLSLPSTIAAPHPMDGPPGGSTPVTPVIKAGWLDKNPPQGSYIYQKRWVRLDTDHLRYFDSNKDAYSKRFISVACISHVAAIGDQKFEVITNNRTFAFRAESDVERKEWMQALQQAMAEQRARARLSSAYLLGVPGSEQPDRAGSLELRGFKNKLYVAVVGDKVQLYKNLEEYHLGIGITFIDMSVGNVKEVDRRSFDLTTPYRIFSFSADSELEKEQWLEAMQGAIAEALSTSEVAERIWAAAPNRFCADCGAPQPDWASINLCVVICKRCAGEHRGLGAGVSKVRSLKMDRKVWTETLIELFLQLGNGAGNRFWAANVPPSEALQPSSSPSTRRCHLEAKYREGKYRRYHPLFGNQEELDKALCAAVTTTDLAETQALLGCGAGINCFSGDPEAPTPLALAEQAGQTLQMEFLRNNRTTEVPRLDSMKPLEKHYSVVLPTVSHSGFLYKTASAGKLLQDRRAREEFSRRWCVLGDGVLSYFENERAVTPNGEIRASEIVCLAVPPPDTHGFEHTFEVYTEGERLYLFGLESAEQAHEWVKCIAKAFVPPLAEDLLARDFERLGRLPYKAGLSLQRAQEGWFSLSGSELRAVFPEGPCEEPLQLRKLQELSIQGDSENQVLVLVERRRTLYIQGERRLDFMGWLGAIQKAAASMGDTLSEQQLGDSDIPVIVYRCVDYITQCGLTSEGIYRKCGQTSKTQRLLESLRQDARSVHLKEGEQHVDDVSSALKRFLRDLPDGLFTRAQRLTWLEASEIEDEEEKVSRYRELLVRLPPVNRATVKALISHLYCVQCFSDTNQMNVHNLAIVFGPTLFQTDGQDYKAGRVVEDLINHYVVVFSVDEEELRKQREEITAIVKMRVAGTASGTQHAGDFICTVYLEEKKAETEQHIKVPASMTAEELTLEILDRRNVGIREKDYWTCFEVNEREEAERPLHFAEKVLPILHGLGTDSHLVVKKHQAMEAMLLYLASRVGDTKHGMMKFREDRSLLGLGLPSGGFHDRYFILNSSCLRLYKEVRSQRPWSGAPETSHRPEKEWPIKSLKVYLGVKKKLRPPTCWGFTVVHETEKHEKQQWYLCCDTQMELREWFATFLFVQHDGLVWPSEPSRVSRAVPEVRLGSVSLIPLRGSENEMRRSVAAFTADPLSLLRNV
UniProt Q14155: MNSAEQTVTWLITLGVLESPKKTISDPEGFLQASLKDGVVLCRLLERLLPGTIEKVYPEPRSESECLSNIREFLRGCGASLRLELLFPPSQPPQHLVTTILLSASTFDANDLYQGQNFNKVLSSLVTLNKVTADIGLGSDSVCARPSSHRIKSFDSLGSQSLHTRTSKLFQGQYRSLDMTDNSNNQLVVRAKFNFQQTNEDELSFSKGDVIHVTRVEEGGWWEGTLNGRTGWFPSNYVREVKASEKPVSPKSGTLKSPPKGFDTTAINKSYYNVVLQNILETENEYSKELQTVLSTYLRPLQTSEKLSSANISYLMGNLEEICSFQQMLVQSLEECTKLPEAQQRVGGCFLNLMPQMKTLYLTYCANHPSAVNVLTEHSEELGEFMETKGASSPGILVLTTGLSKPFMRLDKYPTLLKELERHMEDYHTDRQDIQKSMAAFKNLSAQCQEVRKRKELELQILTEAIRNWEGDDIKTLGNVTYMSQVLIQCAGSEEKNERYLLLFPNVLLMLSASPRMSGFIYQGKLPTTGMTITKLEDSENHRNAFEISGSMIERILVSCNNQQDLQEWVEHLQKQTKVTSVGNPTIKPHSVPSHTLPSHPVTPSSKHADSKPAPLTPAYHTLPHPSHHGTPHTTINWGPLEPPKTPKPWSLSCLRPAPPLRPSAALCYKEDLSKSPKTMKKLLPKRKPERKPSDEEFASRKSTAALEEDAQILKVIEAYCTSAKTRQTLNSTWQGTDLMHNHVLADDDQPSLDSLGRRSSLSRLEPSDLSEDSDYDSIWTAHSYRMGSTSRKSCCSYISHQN

Assays:
Assay in all cases: log2 fold change, soluble protein after heating vs DMSO (PISA); higher = thermal stabilisation; K562 lysate, 10 uM; active = over 0.2 and 3.5 SD of the protein, either way, in both replicates (recomputed)
erlotinib = compound: C#Cc1cccc(Nc2ncnc3cc(OCCOC)c(OCCOC)cc23)c1 [erlotinib]
Procedure, shortened: (§1)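 Quantification was by TMTpro 16plex LC-MS/MS with equalised channel sums, applied to the supernatant after 21,000xg for 90 min. Samples were crude K562 extract at 1 mg/mL protein in PBS pH 7.4 with 1 mM MgCl2, treated with 10 μM compound for 30 min, heated for 3 min across 48°C-58°C, pooled and brought to 0.5% NP-40 at 4°C. Values are log-two fold changes in thermal stability relative to solvent controls, from duplicates.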

[1] = compound: C/C(=N\NC(=O)C1=CC(=CC=C1)S(=O)(=O)N2CCOCC2)/C3=C(C=CC(=C3)Cl)O
Procedure, shortened: as §1

[2] = compound: C1=CC(=CC=C1C2=NC3=C(N2)C=C(C=C3)C(=O)N)OC4=CC=C(C=C4)Cl
Procedure, shortened: as §1

[3] = compound: C1=CC2=C(C=CC(=C2)/C=C\3/C(=O)NC(=NCC4=CC=CS4)S3)N=C1
Procedure, shortened: as §1

[4] = compound: C1=CC2=NC=CN=C2C=C1/C=C/3\C(=O)NC(=O)S3
Procedure, shortened: as §1

[5] = compound: C1=CC=C(C=C1)C2=NC(=C(N2)C3=CC=NC=C3)C4=CC(=C(C=C4)Cl)O
Procedure, shortened: as §1

[6] = compound: C1=CC=C2C(=C1)C3=NNC4=CC=CC(=C43)C2=O
Procedure, shortened: as §1

[7] = compound: C1CCN(C1)C(=O)NC2=CC=CC(=C2)NC3=NC=C(C(=N3)NCCC4=CN=CN4)Br
Procedure, shortened: as §1

[8] = compound: C1CN(CCC1(CC2=CC=C(C=C2)Cl)N)C3=NC=NC4=C3C=CN4
Procedure, shortened: as §1

IRAK-1-4 Inhibitor I = compound: C1COCCN1CCN2C3=CC=CC=C3N=C2NC(=O)C4=CC(=CC=C4)[N+](=O)[O-] [IRAK-1-4 Inhibitor I]
Procedure, shortened: as §1

ibrutinib = compound: C=CC(=O)N1CCC[C@@H](n2nc(-c3ccc(Oc4ccccc4)cc3)c3c(N)ncnc32)C1 [ibrutinib]
Procedure, shortened: as §1

[9] = compound: CC(=O)c1cnc2ccc(-c3cc(Cl)c(O)c(Cl)c3)nc2c1N[C@H]1CC[C@H](CN(C)C)CC1
Procedure, shortened: as §1

ralimetinib = compound: CC(C)(C)Cn1c(N)nc2ccc(-c3[nH]c(C(C)(C)C)nc3-c3ccc(F)cc3)nc21 [ralimetinib]
Procedure, shortened: as §1

[10] = compound: CC(C)(O)CC(=O)NCCn1ccc2ncnc(Nc3ccc(Oc4cccc(C(F)(F)F)c4)c(Cl)c3)c21
Procedure, shortened: as §1

[11] = compound: CC(C)C1=C2N=C(C=C(N2N=C1)NCC3=CC=CC=C3)NCCCCCCN
Procedure, shortened: as §1

[12] = compound: CC1=C(C(CC(=O)N1)C2=CC=C(C=C2)C(F)(F)F)C(=O)NC3=C(C=C4C(=C3)C=NN4)F
Procedure, shortened: as §1

[13] = compound: CC1=C(C2=C(C=C1)C(=O)C3=CC=CC=C3N2CCCN)C
Procedure, shortened: as §1

[14] = compound: CC1=C(C=C(C=C1)NC(=O)C2=CC(=CC=C2)C(C)(C)C#N)NC3=CC4=C(C=C3)N=CN(C4=O)C
Procedure, shortened: as §1

[15] = compound: CC1=C(C=C(C=C1)NC(=O)C2=CC(=CC=C2)N(C)C)NC(=O)C3=CC=C(C=C3)O
Procedure, shortened: as §1

[16] = compound: CC1=CC=C(C=C1)SC2=C3C=C(SC3=CN=C2)C(=O)N
Procedure, shortened: as §1

Measured: log2 fold change

ARRB1 (UniProt P49407)
inactive: erlotinib 0.004 | [1] -0.012 | [2] 0.007 | [3] -0.039 | [4] -0.046 | [5] 0.025 | [6] 0.014 | [7] 0.016 | [8] -0.013 | IRAK-1-4 Inhibitor I 0.026 | ibrutinib 0.05 | [9] -0.001 | ralimetinib -0.036 | [10] -0.015 | [11] -0.016 | [12] -0.018 | [13] -0.025 | [14] 0.003 | [15] 0.01 | [16] 0.016

ARL15 (UniProt Q9NXU5)
inactive: erlotinib -0.035 | [1] 0.004 | [2] -0.009 | [3] 0.011 | [4] 0.079 | [5] -0.033 | [6] 0.005 | [7] 0.004 | [8] -0.031 | IRAK-1-4 Inhibitor I 0.038 | ibrutinib -0.015 | [9] 0.048 | ralimetinib -0.012 | [10] -0.05 | [11] 0.015 | [12] 0.005 | [13] 0.005 | [14] 0.001 | [15] 0.033 | [16] -0.005

ARID3A (UniProt Q99856)
inactive: erlotinib 0.006 | [1] -0.019 | [2] 0.019 | [3] 0.066 | [4] -0.037 | [5] -0.009 | [6] -0.015 | [7] -0.03 | [8] -0.004 | IRAK-1-4 Inhibitor I -0.008 | ibrutinib 0.023 | [9] 0.009 | ralimetinib 0.037 | [10] -0.018 | [11] -0.01 | [12] -0.024 | [13] -0.005 | [14] -0.083 | [15] 0.04 | [16] -0.027

ARL3 (UniProt P36405)
inactive: erlotinib -0.005 | [1] -0.032 | [2] 0.014 | [3] -0.013 | [4] 0.003 | [5] 0.017 | [6] 0.038 | [7] 0.017 | [8] 0.031 | IRAK-1-4 Inhibitor I 0.016 | ibrutinib 0.038 | [9] 0.01 | ralimetinib -0.005 | [10] 0.01 | [11] 0.002 | [12] -0.016 | [13] -0.011 | [14] -0.001 | [15] 0.006 | [16] -0.01

APOB (UniProt P04114)
inactive: erlotinib -0.028 | [1] -0.001 | [2] -0.032 | [3] -0.029 | [4] -0.021 | [5] 0 | [6] -0.055 | [7] -0.067 | [8] 0.015 | IRAK-1-4 Inhibitor I 0.097 | ibrutinib -0.025 | [9] -0.016 | ralimetinib -0.052 | [10] -0.195 | [11] 0.011 | [12] -0.02 | [13] -0.089 | [14] 0.063 | [15] -0.005 | [16] -0.036

ARHGAP18 (UniProt Q8N392)
inactive: erlotinib 0.014 | [1] 0.036 | [2] -0.003 | [3] -0.014 | [4] -0.027 | [5] -0.017 | [6] 0.021 | [7] -0.018 | [8] -0.012 | IRAK-1-4 Inhibitor I 0.025 | ibrutinib -0.003 | [9] -0.012 | ralimetinib 0.007 | [10] -0.011 | [11] -0.018 | [12] -0.013 | [13] 0.003 | [14] 0.03 | [15] -0.006 | [16] 0.017

3 consecutive entries already listed, quoted:
ARL3 (UniProt P36405)
inactive: erlotinib -0.005 | [1] -0.032 | [2] 0.014 | [3] -0.013 | [4] 0.003 | [5] 0.017 | [6] 0.038 | [7] 0.017 | [8] 0.031 | IRAK-1-4 Inhibitor I 0.016 | ibrutinib 0.038 | [9] 0.01 | ralimetinib -0.005 | [10] 0.01 | [11] 0.002 | [12] -0.016 | [13] -0.011 | [14] -0.001 | [15] 0.006 | [16] -0.01

APOB (UniProt P04114)
inactive: erlotinib -0.028 | [1] -0.001 | [2] -0.032 | [3] -0.029 | [4] -0.021 | [5] 0 | [6] -0.055 | [7] -0.067 | [8] 0.015 | IRAK-1-4 Inhibitor I 0.097 | ibrutinib -0.025 | [9] -0.016 | ralimetinib -0.052 | [10] -0.195 | [11] 0.011 | [12] -0.02 | [13] -0.089 | [14] 0.063 | [15] -0.005 | [16] -0.036

ARHGAP18 (UniProt Q8N392)
inactive: erlotinib 0.014 | [1] 0.036 | [2] -0.003 | [3] -0.014 | [4] -0.027 | [5] -0.017 | [6] 0.021 | [7] -0.018 | [8] -0.012 | IRAK-1-4 Inhibitor I 0.025 | ibrutinib -0.003 | [9] -0.012 | ralimetinib 0.007 | [10] -0.011 | [11] -0.018 | [12] -0.013 | [13] 0.003 | [14] 0.03 | [15] -0.006 | [16] 0.017

Next results follow.

ARHGEF10 (UniProt O15013)
inactive: erlotinib 0.107 | [1] -0.308 | [2] 0.111 | [3] 0.102 | [4] -0.098 | [5] 0 | [6] 0.019 | [7] 0.022 | [8] -0.087 | IRAK-1-4 Inhibitor I 0.077 | ibrutinib 0.194 | [9] -0.084 | ralimetinib 0.104 | [10] 0.1 | [11] 0.26 | [12] 0.144 | [13] -0.042 | [14] -0.011 | [15] 0.029 | [16] 0.005

ARPC5L (UniProt Q9BPX5)
inactive: erlotinib 0.001 | [1] -0.048 | [2] 0.041 | [3] 0.007 | [4] -0.032 | [5] -0.012 | [6] -0.05 | [7] -0.011 | [8] 0.031 | IRAK-1-4 Inhibitor I -0.012 | ibrutinib -0.053 | [9] -0.029 | ralimetinib -0.039 | [10] -0.079 | [11] 0.003 | [12] -0.037 | [13] -0.014 | [14] 0.025 | [15] 0.024 | [16] -0.044

API5 (UniProt Q9BZZ5)
inactive: erlotinib -0.003 | [1] 0.033 | [2] 0.007 | [3] 0.007 | [4] -0.001 | [5] -0.012 | [6] 0.029 | [7] -0.003 | [8] 0.013 | IRAK-1-4 Inhibitor I 0.008 | ibrutinib 0 | [9] -0.019 | ralimetinib -0.012 | [10] -0.029 | [11] -0.015 | [12] -0.016 | [13] -0.005 | [14] 0.033 | [15] -0.016 | [16] -0.015

ARHGEF2 (UniProt Q92974)
inactive: erlotinib -0.006 | [1] -0.041 | [2] -0.014 | [3] -0.017 | [4] 0.002 | [5] 0.039 | [6] -0.007 | [7] -0.051 | [8] -0.018 | IRAK-1-4 Inhibitor I -0.005 | ibrutinib 0.028 | [9] -0.003 | ralimetinib 0.043 | [10] 0.005 | [11] 0.014 | [12] 0.008 | [13] -0.034 | [14] 0.047 | [15] 0.018 | [16] 0.01

ARAF (UniProt P10398)
inactive: erlotinib -0.002 | [1] -0.129 | [2] -0.018 | [3] 0.014 | [4] -0.046 | [5] 0.067 | [6] 0.03 | [7] 0.012 | [8] -0.049 | IRAK-1-4 Inhibitor I -0.02 | ibrutinib 0.071 | [9] -0.012 | ralimetinib 0.029 | [10] -0.01 | [11] 0.058 | [12] -0.007 | [13] 0.004 | [14] 0.004 | [15] 0.041 | [16] 0.003

ARHGAP35 (UniProt Q9NRY4)
inactive: erlotinib 0.029 | [1] 0.01 | [2] -0.019 | [3] 0.034 | [4] -0.008 | [5] -0.002 | [6] -0.014 | [7] -0.01 | [8] 0.013 | IRAK-1-4 Inhibitor I 0.016 | ibrutinib -0.027 | [9] -0.009 | ralimetinib 0 | [10] -0.01 | [11] 0.003 | [12] 0 | [13] -0.006 | [14] -0.009 | [15] 0.051 | [16] 0.026

ARHGAP1 (UniProt Q07960)
inactive: erlotinib -0.031 | [1] 0.021 | [2] 0.024 | [3] 0.016 | [4] -0.03 | [5] -0.005 | [6] 0.01 | [7] -0.001 | [8] -0.002 | IRAK-1-4 Inhibitor I 0.006 | ibrutinib -0.005 | [9] -0.006 | ralimetinib -0.008 | [10] -0.015 | [11] -0.042 | [12] -0.017 | [13] -0.035 | [14] -0.013 | [15] -0.029 | [16] -0.022

ARAP1 (UniProt Q96P48)
inactive: erlotinib 0.003 | [1] -0.164 | [2] -0.041 | [3] 0.024 | [4] 0.022 | [5] 0.022 | [6] 0.013 | [7] -0.01 | [8] -0.007 | IRAK-1-4 Inhibitor I 0.008 | ibrutinib -0.01 | [9] 0.002 | ralimetinib 0.016 | [10] 0.028 | [11] 0.003 | [12] 0.02 | [13] -0.01 | [14] 0.005 | [15] 0.057 | [16] 0.006

ARIH2 (UniProt O95376)
inactive: erlotinib -0.004 | [1] -0.005 | [2] 0.04 | [3] -0.029 | [4] 0.007 | [5] -0.02 | [6] -0.015 | [7] 0.009 | [8] 0.04 | IRAK-1-4 Inhibitor I -0.029 | ibrutinib -0.003 | [9] 0.017 | ralimetinib 0.001 | [10] -0.028 | [11] -0.029 | [12] 0.016 | [13] 0.002 | [14] 0.081 | [15] -0.001 | [16] -0.017

ARHGEF7 isoform 5 (UniProt Q14155)
inactive: erlotinib 0 | [1] -0.025 | [2] 0.015 | [3] 0.03 | [4] 0.027 | [5] 0.038 | [6] 0.094 | [7] -0.027 | [8] 0.024 | IRAK-1-4 Inhibitor I 0.009 | ibrutinib -0.031 | [9] 0.079 | ralimetinib -0.011 | [10] 0.022 | [11] 0.032 | [12] 0.006 | [13] 0.121 | [14] -0.03 | [15] -0.014 | [16] -0.004
